No constants are given. Whether binding was seen depends on the method and setting. Binding seen in cells or lysates may run through a third protein. Some entries that bind do so weakly or less than the wild type. For part of these data: Where a sequence is shown, tags or fusion partners need not be part of it.
B1: Pam16 (protein, UniProt P42949 1-149)
chain: MAHRAFIQVIITGTQVFGKAFAEAYRQAASQSVKQGATNASRRGTGKGEYGGITLDESCKILNIEESKGDLNMDKINNRFNYLFEVNDKEKGGSFYLQSKVYRAAERLKWELAQREKNAKAKAGDASTAKPPPNSTNSSGADNSASSNQ
B2: Magmas (Mitochondria-associated granulocyte-macrophage colony-stimulating factor signaling molecule), expressed in yeast (protein, UniProt Q9Y3D7 1-125)
chain: MAKYLAQIIVMGVQVVGRAFARALRQEFAASRAAADARGRAGHRSAAASNLSGLSLQEAQQILNVSKLSPEEVQKNYEHLFKVNDKSVGGSFYLQSKVVRAKERLDEELKIQAQEDREKGQMPHT
B3: Tim23 (human) (protein, UniProt O14925 1-209)
chain: MEGGGGSGNKTTGGLAGFFGAGGAGYSHADLAGVPLTGMNPLSPYLNVDPRYLVQDTDEFILPTGANKTRGRFELAFFTIGGCCMTGAAFGAMNGLRLGLKETQNMAWSKPRNVQILNMVTRQGALWANTLGSLALLYSAFGVIIEKTRGAEDDLNTVAAGTMTGMLYKCTGGLRGIARGGLTGLTLTSLYALYNNWEHMKGSLLQQSL
B4: Pam18 (protein, UniProt Q07914 1-168)
chain: MSSQSNTGNSIEAPQLPIPGQTNGSANVTVDGAGVNVGIQNGSQGQKTGMDLYFDQALNYMGEHPVITGFGAFLTLYFTAGAYKSISKGLNGGKSTTAFLKGGFDPKMNSKEALQILNLTENTLTKKKLKEVHRKIMLANHPDKGGSPFLATKINEAKDFLEKRGISK
B5: Magmas-1, expressed in yeast (protein, UniProt I3L3T0 1-145)
chain: MRWGQSASGSSVKFTRLPACPAKYLAQIIVMGVQVVGRAFARALRQEFAASRAAADARGRAGHRSAAASNLSGLSLQEAQQILNVSKLSPEEVQKNYEHLFKVNDKSVGGSFYLQSKVVRAKERLDEELKIQAQEDREKGQMPHT

Experiments:
[1] = target: T1, Tim23-3HA (S. cerevisiae) (UniProt P32897); test: co-IP; 2 mg yeast mitochondria from Tim23-3HA strains expressing Pam16, Magmas, Magmas-1 or Magmas-2 lysed in 25 mM Tris-HCl pH 7.5, 10% glycerol, 80 mM KCl, 5 mM EDTA, 1 mM PMSF, 1% digitonin; anti-HA antibody on protein G Sepharose, 3 h, 4 °C; washes with 0.5% digitonin; immunoblot
T1 sequence: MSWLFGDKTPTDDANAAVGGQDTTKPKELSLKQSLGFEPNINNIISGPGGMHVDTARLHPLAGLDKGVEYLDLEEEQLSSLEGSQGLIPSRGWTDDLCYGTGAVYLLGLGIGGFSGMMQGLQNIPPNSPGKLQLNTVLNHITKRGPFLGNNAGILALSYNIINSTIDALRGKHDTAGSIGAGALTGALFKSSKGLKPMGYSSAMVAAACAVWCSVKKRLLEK

[2] = target: T2, hexahistidine tagged Magmas (human) (UniProt Q9Y3D7); test: pull-down; hexahistidine tagged Magmas variants on Ni-NTA beads; lysate of 2 mg HEK293T mitochondria in 25 mM HEPES-KOH pH 7.5, 80 mM KCl, 5 mM EDTA, 20 mM imidazole, 10% glycerol, 1 mM PMSF, 0.5% NP-40; 12 h, 4 °C; washes with 0.25% NP-40; immunoblot; only the target purified
T2 sequence: B2 chain

[3] = target: T3, hexahistidine tagged Magmas-1 (human) (UniProt I3L3T0); test: as above
T3 sequence: B5 chain

Binder | binding [1] | binding [2] | binding [3]
B1 | binds |  | 
B2 | binds |  | 
B3 |  | binds | binds
B4 | binds |  | 
B5 | binds |  | 

Source: article PMC8605242
